Measurements taken from patent US9770026B2, “Substituted pyrimidine compound and uses thereof” (Shenyang Sinochem Agrochemicals R&D Co., Ltd., priority 2012, dated 2017).
“And” between values parts separate entries of the source, which are not always exact repeats. Equal entries are not always repeated. Where two headings read alike, the source gives them in different places. Some results were stated once for a whole list of compounds, not compound by compound. For part of these data: For at least one compound, name, drawing or mass did not settle the structure. Some ranges recur; such a range may be that of the whole group of compounds.

Columns and labels:
rice blast = format: cell-based; settings: in vitro
wheat powdery mildew = assay: protectant activity in vivo against wheat powdery mildew
corn rust = assay: protectant activity in vivo against corn rust

| Structure (SMILES) | inhibition rate against rice blast (rice blast; 25 ppm) | further results |
| --- | --- | --- |
| Cc1nc(Cl)c(Cl)c(NCCc2ccc(Oc3ccccc3)nc2)n1 [III-2521] | 80%-99% |  |
| CCc1c(Cl)c(NCCc2ccc(Oc3ccc(C(F)(F)F)cc3)cc2)nc[n+]1CC(=O)c1ccccc1.[Br-] [CK5, reference compound] | less than 50% | inhibition rate against rice blast (rice blast; 8.3 ppm): 0% |
| CCc1ncnc(NCCc2ccc(Oc3ccc(C(F)(F)F)cc3Cl)nc2)c1Cl [III-301] | 100% | protectant activity against wheat powdery mildew in vivo (wheat powdery mildew; 25 ppm): 80%-99% |
| Cc1ncnc(NCCc2ccc(Oc3ccc(Cl)cc3)nc2)c1Cl [III-7] | 80%-99% |  |
| Cc1ncnc(NCCc2ccc(Oc3ccc(C(F)(F)F)cn3)cc2)c1Cl [Compound I-6731] | 80%-99% |  |
| Cc1ccc(Oc2ccc(CCNc3ncnc(C)c3Cl)cn2)cc1 [III-16] | 80%-99% |  |
| CCc1ncnc(NC(=O)Cc2ccc(Oc3ncc(C(F)(F)F)cc3Cl)cc2)c1Cl [CK16, reference compound] | 0% |  |
| Cc1ncnc(NCCc2ccc(Oc3ccc(C(F)(F)F)cn3)cc2)c1Cl [Compound I-6734] | 80%-99% |  |
| CC(F)c1ncnc(NCCc2ccc(Oc3ncc(C(F)(F)F)cc3Cl)cc2)c1Cl (stereo not drawn) [CK2, reference compound] | 0% |  |
| Cc1ncnc(NCCc2ccc(Oc3ccc(C(F)(F)F)cn3)cc2)c1Cl.Cl [Compound I-6730] | 80%-99% |  |
| Cc1ncnc(NCCc2ccc(Oc3ccc(Cl)nn3)cc2)c1Br [Compound I-4121] | 80%-99% |  |
| CCc1ncnc(NCCc2ccc(Oc3ccccc3)nc2)c1Cl [III-181] | 80%-99% | protectant activity against corn rust in vivo (corn rust; 100 ppm): 80%-99%; protectant activity against wheat powdery mildew in vivo (wheat powdery mildew; 100 ppm): 80%-99% |
| Cc1ncnc(NCCc2ccc(Oc3ccc(C(F)(F)F)cn3)cc2)c1Cl [Compound I-6732] | 80%-99% |  |
| Cc1ncnc(NCCc2ccc(Oc3ccc(C(F)(F)F)cn3)cc2)c1Cl [Compound I-6733] | 80%-99% |  |
| FC(F)c1ncnc(NCCc2ccc(Oc3ccc(C(F)(F)F)cc3Cl)nc2)c1Cl [III-661] | 100% and 80%-99% |  |
| Cc1ncnc(NCCc2ccc(Oc3ncc(C(F)(F)F)cc3Cl)cc2)c1Br [Compound I-1878] | 80%-99% |  |
| CCc1ncnc(NCCc2ccc(Oc3ccc(C(F)(F)F)cn3)cc2)c1Cl [Compound I-6758] | 100% and 80%-99% |  |
| Cc1ncnc(NCCc2ccc(Oc3ccc(C(F)(F)F)cn3)cc2)c1Cl [Compound I-6735] | 80%-99% |  |
| Cc1ncnc(NCCc2ccc(Oc3ccc(C(F)(F)F)cc3Cl)nc2)c1Cl [III-121] | 100% | protectant activity against wheat powdery mildew in vivo (wheat powdery mildew; 25 ppm): 80%-99% |
| Cc1ncnc(NCCc2ccc(Oc3ccc([N+](=O)[O-])c(Cl)c3C)cc2)c1Cl [II-236] |  | protectant activity against corn rust in vivo (corn rust; 400 ppm): 80%-99% |
| CCc1ncnc(NC(C)c2ccc(Oc3ccc(C(C)(C)C)cc3)nc2)c1Cl (stereo not drawn) [CK10, reference compound] | less than 50% |  |
| CCc1ncnc(NCCc2ccc(Oc3ccc(C(F)(F)F)cn3)cc2)c1Cl [Compound I-6757] | 100% |  |
| Cc1ncnc(NCCc2ccc(Oc3ccc(C(F)(F)F)cn3)cc2)c1Cl [Compound I-22] | 100% |  |
| Cc1ncnc(NCCc2ccc(Oc3ncccc3C(F)(F)F)cc2)c1Cl [Compound I-929] | 100% | inhibition rate against rice blast (rice blast; 8.3 ppm): 80%-99% |
| FC(F)(F)c1ccc(Oc2ccc(CCNc3ncnc(CCl)c3Cl)cc2)nc1 [Compound I-2922] | 100% | protectant activity against wheat powdery mildew in vivo (wheat powdery mildew; 400 ppm): 80%-99% |
| Cc1ncnc(NCCc2ccc(Oc3ccc(C(F)(F)F)cn3)cc2)c1Cl [Compound I-6729] | 80%-99% |  |
